# Measured values published in the supplement of paper PMC12067093, “Discovery and optimisation of a covalent ligand for TRIM25 and its application to targeted protein ubiquitination” (Chemical Science, 2025).
# Chains of the proteins cited; added tags and fusions are not shown. Lines headed by an entry give the natural chain unless they say otherwise; changes in a name come on top.
# UniProt O94927: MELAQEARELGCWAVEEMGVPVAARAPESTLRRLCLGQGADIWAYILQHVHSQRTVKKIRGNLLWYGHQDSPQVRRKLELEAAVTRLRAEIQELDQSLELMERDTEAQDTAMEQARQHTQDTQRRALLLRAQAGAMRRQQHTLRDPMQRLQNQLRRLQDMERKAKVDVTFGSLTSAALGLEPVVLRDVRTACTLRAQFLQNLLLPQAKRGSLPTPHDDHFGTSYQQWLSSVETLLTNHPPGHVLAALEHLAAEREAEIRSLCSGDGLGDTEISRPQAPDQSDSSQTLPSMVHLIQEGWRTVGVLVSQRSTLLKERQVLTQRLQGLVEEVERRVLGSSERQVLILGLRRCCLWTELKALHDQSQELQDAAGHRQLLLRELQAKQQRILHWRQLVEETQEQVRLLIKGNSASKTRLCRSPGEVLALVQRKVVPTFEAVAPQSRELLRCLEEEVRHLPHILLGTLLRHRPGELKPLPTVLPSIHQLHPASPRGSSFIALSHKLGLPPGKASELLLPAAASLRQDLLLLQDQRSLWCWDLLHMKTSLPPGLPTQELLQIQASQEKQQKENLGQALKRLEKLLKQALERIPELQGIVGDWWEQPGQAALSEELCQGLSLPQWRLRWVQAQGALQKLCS
# UniProt O60443: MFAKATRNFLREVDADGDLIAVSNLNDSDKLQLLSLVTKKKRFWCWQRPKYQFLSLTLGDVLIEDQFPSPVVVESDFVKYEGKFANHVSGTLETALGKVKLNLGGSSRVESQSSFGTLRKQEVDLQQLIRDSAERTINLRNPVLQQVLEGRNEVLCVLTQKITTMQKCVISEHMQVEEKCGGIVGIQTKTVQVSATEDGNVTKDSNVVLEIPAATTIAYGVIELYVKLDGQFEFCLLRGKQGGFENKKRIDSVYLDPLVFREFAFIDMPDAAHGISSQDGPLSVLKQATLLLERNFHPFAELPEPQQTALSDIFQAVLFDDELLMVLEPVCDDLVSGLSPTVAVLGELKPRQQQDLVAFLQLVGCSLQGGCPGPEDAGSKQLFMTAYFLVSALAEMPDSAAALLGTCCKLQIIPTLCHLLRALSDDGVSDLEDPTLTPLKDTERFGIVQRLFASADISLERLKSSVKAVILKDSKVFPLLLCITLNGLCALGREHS
# UniProt P12081: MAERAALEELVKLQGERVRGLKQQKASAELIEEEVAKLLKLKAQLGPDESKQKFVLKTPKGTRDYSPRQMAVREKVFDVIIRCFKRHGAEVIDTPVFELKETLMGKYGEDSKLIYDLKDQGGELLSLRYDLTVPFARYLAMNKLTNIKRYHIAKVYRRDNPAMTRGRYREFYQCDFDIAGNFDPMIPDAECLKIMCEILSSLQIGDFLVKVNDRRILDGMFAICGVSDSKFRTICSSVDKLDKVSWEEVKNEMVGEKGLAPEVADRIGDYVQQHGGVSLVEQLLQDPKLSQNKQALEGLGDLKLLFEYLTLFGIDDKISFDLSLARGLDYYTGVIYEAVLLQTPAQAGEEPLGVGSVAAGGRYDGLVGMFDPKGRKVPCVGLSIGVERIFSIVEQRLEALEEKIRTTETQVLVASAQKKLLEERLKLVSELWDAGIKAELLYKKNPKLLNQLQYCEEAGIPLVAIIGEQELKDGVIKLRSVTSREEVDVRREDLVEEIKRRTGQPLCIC
# UniProt P78347: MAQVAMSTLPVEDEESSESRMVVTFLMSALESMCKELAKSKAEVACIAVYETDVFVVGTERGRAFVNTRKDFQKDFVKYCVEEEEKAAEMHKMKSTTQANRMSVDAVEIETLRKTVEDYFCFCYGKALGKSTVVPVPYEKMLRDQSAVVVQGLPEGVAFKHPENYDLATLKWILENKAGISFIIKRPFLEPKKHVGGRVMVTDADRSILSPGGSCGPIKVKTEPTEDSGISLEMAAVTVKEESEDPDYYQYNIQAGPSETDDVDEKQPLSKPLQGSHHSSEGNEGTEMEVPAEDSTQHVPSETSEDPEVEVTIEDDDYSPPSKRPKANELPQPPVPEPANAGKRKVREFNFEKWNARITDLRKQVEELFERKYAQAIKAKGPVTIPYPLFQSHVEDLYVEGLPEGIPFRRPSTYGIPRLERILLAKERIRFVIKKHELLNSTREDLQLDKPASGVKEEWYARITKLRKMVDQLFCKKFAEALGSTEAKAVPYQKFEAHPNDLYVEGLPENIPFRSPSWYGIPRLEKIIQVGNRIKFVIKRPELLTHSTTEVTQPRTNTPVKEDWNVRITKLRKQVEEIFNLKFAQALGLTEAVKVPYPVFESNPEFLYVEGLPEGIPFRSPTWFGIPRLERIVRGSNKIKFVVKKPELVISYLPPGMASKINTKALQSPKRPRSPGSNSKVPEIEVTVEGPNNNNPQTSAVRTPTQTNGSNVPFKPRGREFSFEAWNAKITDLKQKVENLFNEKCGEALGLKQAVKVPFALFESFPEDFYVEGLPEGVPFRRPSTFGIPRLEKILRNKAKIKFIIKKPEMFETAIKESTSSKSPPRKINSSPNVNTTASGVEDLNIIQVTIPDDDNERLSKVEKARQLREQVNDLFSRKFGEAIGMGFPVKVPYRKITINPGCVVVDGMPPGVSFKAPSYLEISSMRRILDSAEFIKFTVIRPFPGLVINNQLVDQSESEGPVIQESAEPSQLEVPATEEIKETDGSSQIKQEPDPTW
# UniProt P28799: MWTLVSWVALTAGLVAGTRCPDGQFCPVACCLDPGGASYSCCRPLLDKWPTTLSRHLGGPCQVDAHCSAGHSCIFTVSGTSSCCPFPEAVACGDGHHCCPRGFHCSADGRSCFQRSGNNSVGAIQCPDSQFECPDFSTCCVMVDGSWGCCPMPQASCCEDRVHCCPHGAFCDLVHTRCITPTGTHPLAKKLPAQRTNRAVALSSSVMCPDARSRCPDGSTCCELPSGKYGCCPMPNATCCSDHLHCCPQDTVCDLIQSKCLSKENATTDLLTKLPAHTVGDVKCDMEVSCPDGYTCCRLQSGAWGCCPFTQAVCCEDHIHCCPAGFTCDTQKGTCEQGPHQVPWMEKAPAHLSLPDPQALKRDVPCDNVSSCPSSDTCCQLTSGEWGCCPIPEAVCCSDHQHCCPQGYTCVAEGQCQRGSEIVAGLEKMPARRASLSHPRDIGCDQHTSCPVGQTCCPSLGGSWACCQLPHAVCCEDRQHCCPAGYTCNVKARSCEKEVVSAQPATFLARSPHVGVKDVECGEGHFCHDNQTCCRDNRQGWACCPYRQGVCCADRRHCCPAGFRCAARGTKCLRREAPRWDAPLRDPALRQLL
# UniProt P13807: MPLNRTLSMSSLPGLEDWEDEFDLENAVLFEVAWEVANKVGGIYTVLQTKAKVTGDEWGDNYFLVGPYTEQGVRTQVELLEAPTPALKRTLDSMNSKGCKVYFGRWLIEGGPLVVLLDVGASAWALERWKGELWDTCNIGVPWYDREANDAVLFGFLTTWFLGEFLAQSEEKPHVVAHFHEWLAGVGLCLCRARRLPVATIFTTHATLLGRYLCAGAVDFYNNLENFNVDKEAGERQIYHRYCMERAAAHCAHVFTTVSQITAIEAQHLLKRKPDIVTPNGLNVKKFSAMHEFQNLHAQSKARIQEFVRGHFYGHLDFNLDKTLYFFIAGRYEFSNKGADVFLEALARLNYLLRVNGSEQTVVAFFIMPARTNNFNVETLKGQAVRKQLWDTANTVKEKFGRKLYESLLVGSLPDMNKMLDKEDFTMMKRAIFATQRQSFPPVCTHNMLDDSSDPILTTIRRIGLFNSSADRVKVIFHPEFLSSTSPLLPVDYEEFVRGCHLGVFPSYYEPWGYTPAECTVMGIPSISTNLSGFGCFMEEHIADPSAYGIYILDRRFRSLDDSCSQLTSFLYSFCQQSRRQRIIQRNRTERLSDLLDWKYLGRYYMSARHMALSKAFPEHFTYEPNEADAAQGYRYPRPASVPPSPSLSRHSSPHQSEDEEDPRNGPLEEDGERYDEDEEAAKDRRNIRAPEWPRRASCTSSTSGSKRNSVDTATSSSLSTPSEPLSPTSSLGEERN
# UniProt Q8NEC7: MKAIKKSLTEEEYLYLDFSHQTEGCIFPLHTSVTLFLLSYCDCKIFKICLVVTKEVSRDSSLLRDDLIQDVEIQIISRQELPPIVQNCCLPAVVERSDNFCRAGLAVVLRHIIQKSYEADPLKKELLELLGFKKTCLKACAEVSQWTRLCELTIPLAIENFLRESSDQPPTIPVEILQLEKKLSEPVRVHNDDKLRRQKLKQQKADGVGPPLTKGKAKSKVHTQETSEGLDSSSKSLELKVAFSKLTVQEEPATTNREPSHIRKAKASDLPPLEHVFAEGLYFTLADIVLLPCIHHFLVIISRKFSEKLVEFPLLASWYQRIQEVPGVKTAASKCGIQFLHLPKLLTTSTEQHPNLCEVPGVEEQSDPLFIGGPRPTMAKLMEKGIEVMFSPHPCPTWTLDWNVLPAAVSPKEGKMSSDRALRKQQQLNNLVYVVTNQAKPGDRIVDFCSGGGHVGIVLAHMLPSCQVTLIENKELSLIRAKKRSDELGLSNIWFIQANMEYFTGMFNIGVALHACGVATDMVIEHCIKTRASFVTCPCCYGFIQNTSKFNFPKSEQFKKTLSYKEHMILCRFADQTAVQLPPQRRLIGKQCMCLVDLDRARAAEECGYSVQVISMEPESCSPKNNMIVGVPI
# UniProt P21266: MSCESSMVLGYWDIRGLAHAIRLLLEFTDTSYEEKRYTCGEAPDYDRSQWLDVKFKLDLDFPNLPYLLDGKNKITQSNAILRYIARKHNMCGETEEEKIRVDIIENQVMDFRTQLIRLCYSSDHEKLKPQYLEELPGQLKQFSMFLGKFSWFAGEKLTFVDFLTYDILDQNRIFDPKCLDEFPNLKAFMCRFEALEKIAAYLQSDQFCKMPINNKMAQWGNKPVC
# UniProt Q9Y5Q8: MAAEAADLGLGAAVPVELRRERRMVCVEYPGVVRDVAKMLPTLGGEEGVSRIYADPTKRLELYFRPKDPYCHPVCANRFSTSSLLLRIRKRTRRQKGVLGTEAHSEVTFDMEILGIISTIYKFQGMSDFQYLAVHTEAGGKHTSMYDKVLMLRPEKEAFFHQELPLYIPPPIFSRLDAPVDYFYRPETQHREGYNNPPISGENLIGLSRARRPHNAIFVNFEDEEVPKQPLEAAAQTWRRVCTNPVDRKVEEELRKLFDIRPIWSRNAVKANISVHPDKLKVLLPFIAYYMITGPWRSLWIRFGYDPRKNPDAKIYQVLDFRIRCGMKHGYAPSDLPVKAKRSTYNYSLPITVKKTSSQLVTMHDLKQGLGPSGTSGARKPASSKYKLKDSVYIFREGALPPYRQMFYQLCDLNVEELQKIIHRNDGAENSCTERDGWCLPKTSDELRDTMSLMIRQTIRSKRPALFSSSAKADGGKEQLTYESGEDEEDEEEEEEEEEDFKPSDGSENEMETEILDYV
# UniProt O75367, whole entry, looked up: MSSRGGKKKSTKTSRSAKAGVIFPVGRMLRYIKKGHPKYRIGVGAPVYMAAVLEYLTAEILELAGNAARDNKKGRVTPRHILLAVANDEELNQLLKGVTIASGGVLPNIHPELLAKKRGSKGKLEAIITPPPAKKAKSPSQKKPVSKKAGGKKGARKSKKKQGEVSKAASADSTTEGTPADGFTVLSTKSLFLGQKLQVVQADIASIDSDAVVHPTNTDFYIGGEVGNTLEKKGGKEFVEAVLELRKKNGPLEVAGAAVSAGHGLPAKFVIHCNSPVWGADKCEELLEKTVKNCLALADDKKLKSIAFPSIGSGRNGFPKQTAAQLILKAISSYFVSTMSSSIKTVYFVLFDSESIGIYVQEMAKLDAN
# UniProt Q6IC98: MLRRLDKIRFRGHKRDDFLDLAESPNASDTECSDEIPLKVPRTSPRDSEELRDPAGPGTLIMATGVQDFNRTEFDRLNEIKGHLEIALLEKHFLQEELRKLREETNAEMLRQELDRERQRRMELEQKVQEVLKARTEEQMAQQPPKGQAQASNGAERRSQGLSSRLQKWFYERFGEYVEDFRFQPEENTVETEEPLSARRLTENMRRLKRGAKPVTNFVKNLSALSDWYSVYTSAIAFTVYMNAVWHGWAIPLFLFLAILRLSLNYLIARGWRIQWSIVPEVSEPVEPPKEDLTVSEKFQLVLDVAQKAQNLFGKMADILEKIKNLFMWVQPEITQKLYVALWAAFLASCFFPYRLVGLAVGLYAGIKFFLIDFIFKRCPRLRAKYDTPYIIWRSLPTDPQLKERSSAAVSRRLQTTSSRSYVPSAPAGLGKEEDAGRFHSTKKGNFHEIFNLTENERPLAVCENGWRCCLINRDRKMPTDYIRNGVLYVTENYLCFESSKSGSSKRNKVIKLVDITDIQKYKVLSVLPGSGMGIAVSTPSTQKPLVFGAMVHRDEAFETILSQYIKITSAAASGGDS
# UniProt Q96CS2: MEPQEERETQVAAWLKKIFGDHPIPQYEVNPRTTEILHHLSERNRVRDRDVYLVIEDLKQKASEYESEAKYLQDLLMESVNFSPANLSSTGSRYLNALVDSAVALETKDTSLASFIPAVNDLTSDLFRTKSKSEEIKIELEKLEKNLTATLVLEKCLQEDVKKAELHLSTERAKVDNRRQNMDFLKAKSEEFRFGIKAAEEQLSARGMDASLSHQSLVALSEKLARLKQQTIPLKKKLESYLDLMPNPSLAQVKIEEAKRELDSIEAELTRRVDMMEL
# The other results are listed elsewhere or left out.
# Compound: CC1Cc2ccccc2N1C(=O)C1CCCN(C1)C(=O)CCl (mixture of isomers) [TRIM25 ligand 11 (diastereomer mixture)]
# Assay: probe-labelled cysteine peptide fold change vs DMSO (competition) (log2 fold change); higher = less target engagement (more negative = stronger competition)
# Details: THP-1, incubation time: 4 h
# 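Note: competitive chemoproteomic profiling in live THP-1 cells with an iodoacetamide desthiobiotin (IA-DTB) probe, comparing probe-labelled peptide intensities in compound-treated cells against DMSO-treated controls.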
Target,probe-labelled cysteine peptide fold change (10 µM),probe-labelled cysteine peptide fold change (50 µM)
HAUS5_O94927_350_CCLWTELK (UniProt O94927),-0.0545,0.214
GRWD1_Q9BQ67_66_AQTGAPCLSFDIVR (UniProt Q9BQ67),-0.169,-0.206
GTF2E2_P29084_208_SCQFSVDEEFQK (UniProt P29084),0.0413,-0.1
GTF3C4_Q9UKN8_764_QAVCSNGHIWLR (UniProt Q9UKN8),0.0218,-0.0524
GTF2H4_Q92759_41_LYGHPATCLAVFR (UniProt Q92759),-0.0121,0.156
GSDME_O60443_168_CVISEHMQVEEK (UniProt O60443),0.0837,-0.0817
GRSF1_Q12849_476_YIELFLNSCPK (UniProt Q12849),0.0157,-0.163
GTF2H1_P32780_246_DLFAECAK (UniProt P32780),0.00813,0.0195
GPX4_P36969_102_ILAFPCNQFGK (UniProt P36969),0.222,0.329
GRHPR_Q9UBQ7_29_AADCEVEQWDSDEPIPAK (UniProt Q9UBQ7),-0.343,-0.234
HARS_P12081_235_TICSSVDK (UniProt P12081),0.0434,0.149
GPX1_P07203_115_CEVNGAGAHPLFAFLR (UniProt P07203),-0.0227,-0.0248
GTF2I_P78347_475_MVDQLFCK (UniProt P78347),0.129,0.168
GRN_P28799_533_DVECGEGHFCHDNQTCCR (UniProt P28799),-0.262,-0.177
GSDMD_P57764_38_VVQELDHGGEFIPVTSLQSSTGFQPYCLVVR (UniProt P57764),-0.301,0.0224
GYS1_P13807_444_QSFPPVCTHNMLDDSSDPILTTIRR (UniProt P13807),-0.36,-0.147
HARS_P12081_379_KVPCVGLSIGVER (UniProt P12081),-0.0416,-0.0375
GPT2_Q8TD30_265_VLCIINPGNPTGQVQSR (UniProt Q8TD30),-0.07,0.00306
GTF3C1_Q12789_544_ACQSLASR (UniProt Q12789),-0.0578,-0.212
GPS1_Q13098_175_RGHDDLGDHYLDCGDLSNALK (UniProt Q13098),0.0394,-0.132

Target,probe-labelled cysteine peptide fold change (10 µM),probe-labelled cysteine peptide fold change (50 µM)
GPX7_Q96SL4_86_DLGPHHFNVLAFPCNQFGQQEPDSNK (UniProt Q96SL4),-0.112,0.00112
GSTCD_Q8NEC7_592_QCMCLVDLDR (UniProt Q8NEC7),-0.0719,-0.109
GYS1_P13807_564_SLDDSCSQLTSFLYSFCQQSR (UniProt P13807),-0.327,-0.0499
GTPBP4_Q9BZE4_261_AAVLYVMDLSEQCGHGLR (UniProt Q9BZE4),0.177,0.192
GSTM3_P21266_91_KHNMCGETEEEK (UniProt P21266),-0.0795,-0.0979
HARS2_P49590_274_IGDYVQCHGGVSLVEQMFQDPR (UniProt P49590),-0.114,-0.207
GTF3C5_Q9Y5Q8_26_MVCVEYPGVVR (UniProt Q9Y5Q8),0.168,0.0635
GSR_P00390_377_GIYAVGDVCGK (UniProt P00390),0.0097,0.109
GSS_P48637_294_CPDIATQLAGTKK (UniProt P48637),-0.121,-0.236
GRN_P28799_335_GTCEQGPHQVPWMEK (UniProt P28799),-0.0148,0.0448
GSTM3_P21266_3_SCESSMVLGYWDIR (UniProt P21266),-0.13,-0.535
GTSF1_Q8WW33_17_LLQCPYDK (UniProt Q8WW33),-0.185,-0.222
GTF3C5_Q9Y5Q8_242_VCTNPVDR (UniProt Q9Y5Q8),0.0237,0.00476
H2AFY_O75367_276+286_FVIHCNSPVWGADKCEELLEK (UniProt O75367),-0.287,-0.186
H2AFY_O75367_276_FVIHCNSPVWGADK (UniProt O75367),0.129,0.0302
GTF2I_P78347_745_CGEALGLK (UniProt P78347),0.0477,-0.158
HAUS5_O94927_446_CLEEEVR (UniProt O94927),-0.00691,-0.048
GRAMD4_Q6IC98_463_GNFHEIFNLTENERPLAVCENGWR (UniProt Q6IC98),0.166,0.172
HAUS1_Q96CS2_156_CLQEDVK (UniProt Q96CS2),-0.0729,0.000721
GRB2_P62993_32_VLNEECDQNWYK (UniProt P62993),-0.0196,0.0622

# For reference, part of the list above.
Target,probe-labelled cysteine peptide fold change (10 µM),probe-labelled cysteine peptide fold change (50 µM)
GSTCD_Q8NEC7_592_QCMCLVDLDR (UniProt Q8NEC7),-0.0719,-0.109
GYS1_P13807_564_SLDDSCSQLTSFLYSFCQQSR (UniProt P13807),-0.327,-0.0499
GTPBP4_Q9BZE4_261_AAVLYVMDLSEQCGHGLR (UniProt Q9BZE4),0.177,0.192
